Patent US7041458B2, “Methods and reagents for determining protein S” (priority 1996, dated 2006)
Part of at least one peptide drawing is inferred or uncertain, most often the ends. Some entries repeat one wording, which the source may state once for all of them. Some entries share one result that the patent states for a list of compounds. Some compounds share one range, which may span the group rather than tell each member. Where no end group is shown, it is not given here.

How the values were obtained:
[1] = target: T1, protein S-C4BP interaction (Homo sapiens, UniProt P20851); assay: Peptide inhibition of the protein S-C4BP interaction by surface plasmon resonance (BIAcore, immobilized C4BP); assay type: binding; details: for effect on binding of human protein S to C4BP (SPR response): 50 nM protein S, peptide up to 100 μM (2000-fold excess); for inhibition of the protein S-C4BP interaction (summary of the above tests): up to 2000-fold excess over protein S
T1 construct: C4BPβ was first isolated from human plasma in the form of the protein S-C4BP complex; from tissue; host or cells: human plasma
T1 sequence (P20851 18-252): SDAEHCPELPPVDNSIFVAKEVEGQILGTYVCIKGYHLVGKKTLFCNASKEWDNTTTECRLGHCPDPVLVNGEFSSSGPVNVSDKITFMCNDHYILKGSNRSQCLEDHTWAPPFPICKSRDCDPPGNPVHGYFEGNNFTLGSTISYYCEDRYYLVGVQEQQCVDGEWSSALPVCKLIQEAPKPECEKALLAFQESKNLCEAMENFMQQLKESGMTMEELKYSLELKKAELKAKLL
T1 sequence (P04003 49-597 partner): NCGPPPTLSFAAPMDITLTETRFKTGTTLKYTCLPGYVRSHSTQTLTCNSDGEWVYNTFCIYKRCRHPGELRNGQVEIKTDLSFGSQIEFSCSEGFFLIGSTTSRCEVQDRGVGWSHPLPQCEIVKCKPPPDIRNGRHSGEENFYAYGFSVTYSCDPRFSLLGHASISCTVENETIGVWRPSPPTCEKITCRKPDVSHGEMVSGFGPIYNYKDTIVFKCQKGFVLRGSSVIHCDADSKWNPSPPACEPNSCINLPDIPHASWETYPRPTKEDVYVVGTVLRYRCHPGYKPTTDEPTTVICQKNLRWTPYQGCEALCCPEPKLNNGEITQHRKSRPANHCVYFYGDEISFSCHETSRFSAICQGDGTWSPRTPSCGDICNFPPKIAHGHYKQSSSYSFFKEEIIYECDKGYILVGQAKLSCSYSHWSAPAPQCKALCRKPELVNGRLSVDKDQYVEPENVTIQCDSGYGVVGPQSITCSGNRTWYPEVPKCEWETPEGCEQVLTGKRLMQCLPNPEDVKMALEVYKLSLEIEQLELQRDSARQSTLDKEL
Protocol: E. Peptide Inhibition of the Protein S-C4BP Interaction According to Surface Plasmon Resonance Studies.
The surface plasmon resonance studies were performed using a BIAcore™ apparatus from Pharmacia Biosensor AB. Immobilization of C4BP to the dextran coated gold surface of a sensorchip was performed at a flow rate of 5 μl/min, using HC as flow buffer. Equal volumes of 0.1 M NHS and 0.1 M EDC were first mixed, whereafter 30 μl of the mixture was flown over the sensorchip surface to activate the carboxymethylated dextran. C4BP was then injected over the sensorchip (40 μl of a 60 μg/ml solution in 10 mM NaOAc at pH 4.75), whereafter unreacted NHS-ester groups were blocked by 15 μl 1M ethanolamine (pH 8.5). The system was regenerated by addition of 15 μl 0.1 M HCl, which removes all non-covalently bound molecules. The immobilized amount of C4BP was 8000 RU. Protein S association was monitored with 50 nM human protein S in HC buffer in a continuous flow of 1 μl per minute during 45 minutes. The ability of each peptide to inhibit the protein S binding was studied by following the association to C4BP for mixtures of protein S and peptide. In BIAcore™, the total amount of bound material is measured, and the peptides are 25-fold smaller than protein S, inhibition of protein S-binding by peptide binding will drastically lower the observed response during the association phase. The percent protein S bound, X, was calculated as X=(S−0.04Smax)/0.96Smax where S is the measured response and Smax is the response obtained in the absence of peptide.
As disclosed in Section E, the ability of the synthetic peptides to inhibit the binding of human protein S to C4BP was also studied using surface plasmon resonance on a BIA-core™ system.
(§1) In these figures, peptide inhibition of the protein S-C4BP interaction is shown as the amount of protein S bound (relative to the amount bound in the absence of peptide) versus concentration of the nine peptides listed in Table 1: (o) SL1, (♦) SL2, (□) SL3, (+) SL4, (⋄) SL5, (●) SL6, (▾) SL7, (Δ) BD4 & (∇) BD6. In FIG. 5A, the result from an equilibrium binding assay using immobilized C4BP in microtiter wells and radiolabelled human protein S is shown. […] In FIG. 5B, the result from surface plasmon resonance assay on a BIAcore™ sensorchip is shown. The amount of protein S bound, X, was calculated from the observed signal intensity, S, compared to the maximum signal intensity in the absence of peptide Smax, as […].

[2] = target: T1, protein S-C4BP interaction; assay: Peptide inhibition of the protein S-C4BP interaction in microtiter plates (equilibrium binding assay, 125I-labelled protein S tracer, immobilized C4BP); details: for inhibition of binding of the 125I-labelled protein S tracer to immobilized C4BP: TBS containing 10 mM EDTA, 4° C. over night; for peptide required relative to protein S for half maximum inhibition of binding of radiolabelled protein S to C4BP: microtiter wells, absence of calcium, EDTA containing buffer
Protocol: D. Peptide Inhibition of the Protein S-C4BP Interaction in Microtiter Plates.
Microtiter plates were coated with C4BP, 50 μl/well, 10 μg/ml in 0.075 M sodium carbonate buffer, pH 9.6. The plates were incubated over night at 4° C. and then washed with TBS, pH 7.5, containing 0.1% Tween 20. […] The wells were then washed and the amount of bound protein S detected using a γ-counter.
As disclosed in Section D, the synthetic peptides were tested for their ability to displace binding of a ^125I-labelled protein S tracer to immobilized C4BP (FIG. 5A).
as §1

C4BP = target: T2, C4BP (Homo sapiens, UniProt P20851); assay: Fluorescence polarization titration of peptides with C4BP (results not shown); assay type: binding
T2 sequence (P20851 18-252): T1 sequence (P20851 18-252)
T2 sequence (P04003 49-597 partner): T1 sequence (P04003 49-597 partner)
Description: The difference in KD observed for the peptide and protein might in part be due to post translational modification of the protein.

| Sequence | effect on binding of human protein S to C4BP (SPR response) [1] | inhibition of the protein S-C4BP interaction (summary of the above tests) [1] | inhibition of the protein S-C4BP interaction (summary of the above tests) ([1]; listed as 439–460) | inhibition of binding of the 125I-labelled protein S tracer to immobilized C4BP [2] | peptide required relative to protein S for half maximum inhibition of binding of radiolabelled protein S to C4BP [2] | KD of peptide-C4BP complex relative to KD of Ca2+-free protein S-C4BP complex (C4BP) | inhibition of the protein S-C4BP interaction (summary of the above tests) ([1]; listed as 435–468) | inhibition of the protein S-C4BP interaction (summary of the above tests) ([1]; listed as 447–468) |
| --- | --- | --- | --- | --- | --- | --- | --- | --- |
| EKGSYYPGSGIAQFHIDYNNVS [SL2] | prevent the binding of protein S to C4BP | capable of inhibiting the protein S-C4BP interaction | capable of inhibiting protein S-C4BP interaction | completely inhibit | 50–100 fold | at most 130 fold |  |  |
| LVTVEKGSYYPGSGIAQFHIDYNNVSSAEGWHVN [SL7] | prevent the binding of protein S to C4BP | capable of inhibiting the protein S-C4BP interaction |  | completely inhibit | 50–100 fold | at most 130 fold | capable of inhibiting protein S-C4BP interaction |  |
| SGIAQFHIDYNNVSSAEGWHVN [SL6] | prevent the binding of protein S to C4BP | capable of inhibiting the protein S-C4BP interaction |  | completely inhibit | 50–100 fold | at most 130 fold |  | capable of inhibiting protein S-C4BP interaction |
